Data reported in patent US20110301093A1.
Results are given in words; binding and its absence hold for the method and conditions named. In cells and extracts the contact can be indirect. Some entries that bind do so weakly or less than the wild type. For part of these data: Tags and fused reporters may be left off the sequences shown.

By UniProt entry, the sequences of proteins in these tests, tags left out. Where a name states a change or a piece, a line headed by the entry shows the natural chain unless it says otherwise.
UniProt Q07817: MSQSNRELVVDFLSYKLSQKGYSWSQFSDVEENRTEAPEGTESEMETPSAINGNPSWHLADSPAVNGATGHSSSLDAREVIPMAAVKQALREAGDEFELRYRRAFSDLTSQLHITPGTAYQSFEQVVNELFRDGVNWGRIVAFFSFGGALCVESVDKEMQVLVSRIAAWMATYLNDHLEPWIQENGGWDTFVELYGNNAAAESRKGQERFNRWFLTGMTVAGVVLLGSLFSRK
UniProt P10415: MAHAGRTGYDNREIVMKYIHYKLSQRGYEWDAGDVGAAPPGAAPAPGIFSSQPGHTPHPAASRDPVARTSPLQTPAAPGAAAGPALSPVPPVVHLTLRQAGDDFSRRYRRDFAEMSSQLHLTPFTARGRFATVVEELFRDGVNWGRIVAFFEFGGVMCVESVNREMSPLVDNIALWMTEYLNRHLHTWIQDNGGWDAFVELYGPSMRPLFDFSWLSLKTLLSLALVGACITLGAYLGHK
UniProt Q14457: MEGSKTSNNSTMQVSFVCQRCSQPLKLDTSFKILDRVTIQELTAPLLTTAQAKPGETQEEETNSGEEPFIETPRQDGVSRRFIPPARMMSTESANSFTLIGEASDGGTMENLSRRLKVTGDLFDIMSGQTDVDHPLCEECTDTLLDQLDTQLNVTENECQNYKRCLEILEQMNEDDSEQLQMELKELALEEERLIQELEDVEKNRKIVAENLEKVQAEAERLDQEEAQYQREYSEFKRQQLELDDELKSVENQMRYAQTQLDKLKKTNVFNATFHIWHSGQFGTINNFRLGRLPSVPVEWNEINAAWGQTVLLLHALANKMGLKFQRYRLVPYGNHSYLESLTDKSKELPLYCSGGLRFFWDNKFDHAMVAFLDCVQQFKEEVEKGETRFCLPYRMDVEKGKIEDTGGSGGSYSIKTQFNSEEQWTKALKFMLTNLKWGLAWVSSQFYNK

Key:
[1] = target: Bcl-XL (UniProt Q07817); assay: co-immunoprecipitation
[2] = target: Bcl-XL (UniProt Q07817); assay: co-immunoprecipitation with anti-Flag from co-transfected HEK293 cells
[3] = target: T1, HA-tagged activated DAPk (ΔCaM) (UniProt P53355); assay: co-immunoprecipitation with anti-Flag from HEK293 cells transfected with ΔCaM DAPk
T1 sequence: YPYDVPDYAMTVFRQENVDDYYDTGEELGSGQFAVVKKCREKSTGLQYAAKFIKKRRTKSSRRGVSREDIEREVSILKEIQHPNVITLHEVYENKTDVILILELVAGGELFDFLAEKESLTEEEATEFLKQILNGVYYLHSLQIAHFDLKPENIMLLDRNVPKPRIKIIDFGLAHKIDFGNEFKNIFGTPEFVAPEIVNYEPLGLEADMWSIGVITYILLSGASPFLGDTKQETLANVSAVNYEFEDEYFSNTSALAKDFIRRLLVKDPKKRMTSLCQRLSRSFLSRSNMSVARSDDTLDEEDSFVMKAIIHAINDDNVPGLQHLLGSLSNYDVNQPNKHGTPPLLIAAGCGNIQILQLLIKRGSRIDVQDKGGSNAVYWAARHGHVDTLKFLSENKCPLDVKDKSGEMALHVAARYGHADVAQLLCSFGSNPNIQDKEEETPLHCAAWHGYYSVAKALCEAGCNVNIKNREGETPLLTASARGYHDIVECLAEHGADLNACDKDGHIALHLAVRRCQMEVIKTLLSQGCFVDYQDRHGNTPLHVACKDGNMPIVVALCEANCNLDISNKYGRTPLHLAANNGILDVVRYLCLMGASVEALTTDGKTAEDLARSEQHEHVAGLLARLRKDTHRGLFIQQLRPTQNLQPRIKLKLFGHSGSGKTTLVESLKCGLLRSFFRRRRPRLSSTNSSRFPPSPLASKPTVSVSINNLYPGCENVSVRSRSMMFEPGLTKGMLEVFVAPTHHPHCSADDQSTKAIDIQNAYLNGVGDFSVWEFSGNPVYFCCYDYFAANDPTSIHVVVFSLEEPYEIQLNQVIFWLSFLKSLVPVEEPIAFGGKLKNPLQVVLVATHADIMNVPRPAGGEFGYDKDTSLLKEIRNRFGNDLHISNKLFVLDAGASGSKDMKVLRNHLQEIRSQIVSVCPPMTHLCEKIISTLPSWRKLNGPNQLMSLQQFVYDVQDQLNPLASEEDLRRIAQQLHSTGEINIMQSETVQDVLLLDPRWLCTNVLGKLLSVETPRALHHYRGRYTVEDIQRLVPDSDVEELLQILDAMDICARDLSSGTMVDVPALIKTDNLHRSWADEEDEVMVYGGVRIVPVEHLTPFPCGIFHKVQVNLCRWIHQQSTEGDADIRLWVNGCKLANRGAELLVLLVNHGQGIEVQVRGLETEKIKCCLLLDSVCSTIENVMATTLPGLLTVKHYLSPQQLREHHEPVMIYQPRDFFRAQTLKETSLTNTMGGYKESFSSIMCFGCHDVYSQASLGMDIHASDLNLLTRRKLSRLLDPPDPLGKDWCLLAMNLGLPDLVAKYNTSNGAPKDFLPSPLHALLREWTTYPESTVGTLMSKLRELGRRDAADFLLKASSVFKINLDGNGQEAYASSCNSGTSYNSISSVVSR

[4] = target: Bcl-2 (UniProt P10415); assay: co-immunoprecipitation
[5] = target: endogenous DAPk (UniProt P53355); assay: co-immunoprecipitation
[6] = target: endogenous DAPk (UniProt P53355); assay: co-immunoprecipitation with anti-Flag from HEK293T cells
[7] = target: HA-tagged DAPk (UniProt P53355); assay: co-immunoprecipitation with anti-Flag from co-transfected HEK293 cells
[8] = target: Bcl-2 (UniProt P10415); assay: co-immunoprecipitation with anti-Flag from cotransfected HEK293T cells, anti-Bcl-2 blot; wild type is the reference
[9] = target: endogenous DAPk (UniProt P53355); assay: GST pull-down
[10] = target: Bcl-2 (UniProt P10415); assay: GST pull-down from cell extracts, western blot
[11] = target: endogenous DAPk (UniProt P53355); assay: GST pull-down from cell extracts, western blot

Measured: binding

Flag-Beclin-1 T119A (from UniProt Q14457 1-450)
binds: [1] | [2] | [3]

Flag-tagged Beclin-1 (from UniProt Q14457 1-450)
binds: [4] | [5] | [6] | [7] | [3] | [8]

GST-Beclin-1 (from UniProt Q14457 1-450)
binds: [9] | [10] | [11]
